{"source": "patent US20260060944A1", "about": "“PHARMACEUTICAL COMPOSITION AND USE THEREOF” (priority 2022, published 2026)", "tested_on": "human non-small cell lung cancer (A549) cell lines", "experiment": "Cell survival rate (MTS) of A549 cells", "assay_type": "cell-based", "details": "individually administered at concentrations ranging from 2 to 80 nM", "protocol": "Human cancer cell lines, including non-small cell lung cancer (A549), glioblastoma (U87), glioblastoma (T98G), erythroleukemia type cell line (K-562), acute monocytic leukemia (THP-1), hepatocellular carcinoma (HepG2), colorectal cancer (HCT116), ovarian cancer (TOV-21G), triple-negative breast cancer (MDA-MB-231), or drug-resistant human breast cancer (MCF7-resistant), were cultured in media supplemented with 10% (v/v) fetal bovine serum (FBS) (Penicillin-Streptomycin Solution, ACE Biolabs, CC1009), glutamine-enriched Nutrient Mixture F-12 Ham Kaighn's Modification (F-12/K, SIGMA-ALDRICH, USA), and RPMI-1640 (HiMedia Laboratories LLC, USA). The cell lines were separately incubated in a 5% CO2 atmosphere at 37° C. using a controlled incubator (Astec-SCA-165DS).\nDifferent cancer cell lines were seeded in 96-well plates and allowed to adhere for 24 hours. Cells were then treated with combinations of three drugs, while untreated cells served as the control group. 20 μL of MTS reagent (Promega, USA) was added to each well and incubated at 37° C. for one hour. Optical density (OD) was measured at 490 nm using an ELISA detector (BioTek EPOCH2) to evaluate the ell viability and proliferation by using the following formula: […]", "note": "At least one compound was matched to its structure with a doubt left.", "data": [{"compound": "CCN(CC)C(=S)SSC(=S)N(CC)CC", "note": "[Disulfiram]", "values": [{"measurement": "reduction in survival rate", "result": "no significant reduction in survival rate"}]}]}
